Test results reported in PMC6988281.
Results are given in words; binding and its absence hold for the method and conditions named. Binding seen in cells or lysates may run through a third protein. Some results given as binding are weak or reduced against the parent protein; the word gives no strength.

Protein sequences, listed by entry. Tags and fused reporters are not part of them.
UniProt Q9C030: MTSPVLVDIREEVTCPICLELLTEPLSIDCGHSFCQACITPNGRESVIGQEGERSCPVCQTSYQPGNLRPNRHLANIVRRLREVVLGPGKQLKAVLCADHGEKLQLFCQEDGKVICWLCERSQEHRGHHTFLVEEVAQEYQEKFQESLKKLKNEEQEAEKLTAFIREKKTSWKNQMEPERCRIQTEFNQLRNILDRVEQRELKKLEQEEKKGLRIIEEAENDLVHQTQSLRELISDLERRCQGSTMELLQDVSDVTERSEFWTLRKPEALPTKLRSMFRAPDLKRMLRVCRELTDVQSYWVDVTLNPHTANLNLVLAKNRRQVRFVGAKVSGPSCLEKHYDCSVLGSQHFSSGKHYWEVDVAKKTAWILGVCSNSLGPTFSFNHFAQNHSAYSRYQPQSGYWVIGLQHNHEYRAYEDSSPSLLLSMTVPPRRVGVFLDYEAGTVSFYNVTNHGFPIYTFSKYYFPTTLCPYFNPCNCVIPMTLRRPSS
UniProt P78543: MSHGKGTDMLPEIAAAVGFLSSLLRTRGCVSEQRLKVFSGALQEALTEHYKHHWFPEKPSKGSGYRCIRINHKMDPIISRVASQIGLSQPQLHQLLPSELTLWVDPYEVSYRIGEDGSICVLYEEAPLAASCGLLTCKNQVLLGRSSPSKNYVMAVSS

Experiments:
[1] = target: GST-tagged TRIM6 (UniProt Q9C030); experiment: pull-down; GST fusion proteins or GST from E. coli on glutathione 4B beads, incubated with HCT-8 cell lysate 2 h at 4 °C, washed three times with RIPA buffer; western blotting; only the target purified
[2] = target: TRIM6 (endogenous, HCT-8 and HCT116 cells) (human (endogenous in HCT-8 and HCT116)) (UniProt Q9C030); experiment: co-IP; HCT-8 and HCT116 lysates (RIPA buffer) with anti-TRIM6, anti-TIS21 or control IgG 2 h at 4 °C, then protein A/G Plus agarose 2 h at 4 °C; western blotting
[3] = target: GST-tagged TIS21 (UniProt P78543); experiment: pull-down; GST fusion proteins or GST from E. coli on glutathione 4B beads, incubated with HCT-8 cell lysate 2 h at 4 °C, washed three times with RIPA buffer; western blotting; only the target purified

TIS21 (endogenous, HCT-8 and HCT116 cells) (from UniProt P78543 1-158)
binding [1]: binds
binding [2]: binds

TRIM6 (endogenous, HCT-8 and HCT116 cells) (from UniProt Q9C030 1-488)
binding [3]: binds
